Measured values published in publication PMC7819943, “Rice protein-binding microarrays: a tool to detect cis-acting elements near promoter regions in rice”.
This is one part of the list.

Sequences of proteins named here, by UniProt entry; tags and fusion partners are left off.
UniProt Q0JBA9, entry or part of it: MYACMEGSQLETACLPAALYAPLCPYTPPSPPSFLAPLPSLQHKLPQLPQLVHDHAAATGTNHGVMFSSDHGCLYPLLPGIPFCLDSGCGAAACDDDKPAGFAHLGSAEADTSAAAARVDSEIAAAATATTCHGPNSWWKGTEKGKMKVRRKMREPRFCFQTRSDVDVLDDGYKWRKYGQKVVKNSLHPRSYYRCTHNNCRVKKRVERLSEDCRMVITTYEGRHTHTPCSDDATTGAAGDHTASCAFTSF

Biological target: OsWRKY34 (Oryza sativa, UniProt Q0JBA9 1-250)
Assay: protein-binding microarray (RPBM); PBS, 2% BSA, 51.3 ng/ul salmon testes DNA, 50 uM zinc acetate, 200 nM TF, 25 C, 1 h; high values mean tight binding
Details: protein: recombinant; tags: N-terminal polyhistidine and DsRed monomer fusion (pET32a); label: CyDye5-dUTP incorporated in the synthesized complementary strand; 3' TTTTT single-stranded linker to array surface; dsDNA, one strand shown
Summary of the method: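 Transcription factors were made in E. coli BL21-CodonPlus as N-terminal fusions to a polyhistidine tag and DsRed, then purified on Ni–NTA. After primer extension with Cy5-dUTP and blocking with 2% BSA, a custom Agilent array was exposed for 1 h at 25 °C to 200 nM protein in PBS, 2% BSA, salmon testes DNA and 50 µM zinc acetate. Washed arrays were scanned on an Axon 4000B, and the binding signal is per-feature fluorescence intensity in arbitrary units.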

Row | Sequence | binding signal
1 | ACTCTACTCTCCTACTAGTCGTCTACTACTCGGCCAGGTGCGGAGTCACCTAGTGCAG | 10300 fluorescence intensity (a.u.)
2 | GATCTTGCGCTCGCATCGATTGCCAAGTTCTGCCCGAGCTCGGAGTCACCTAGTGCAG | 8710 fluorescence intensity (a.u.)
3 | CATGATCGTTTTGAGAGAACACATGCCATTTCCATCCTTACGGAGTCACCTAGTGCAG | 8250 fluorescence intensity (a.u.)
4 | GGCTGCACATACTTCCACCGAGACCGACTCCGTTTCCTCTCGGAGTCACCTAGTGCAG | 9120 fluorescence intensity (a.u.)
5 | CTCTCTTGCCTCTCCTGTCTCTTTCTCGGATTTTTCTCATCGGAGTCACCTAGTGCAG | 9020 fluorescence intensity (a.u.)
6 | CTCGTCACATTACTCCGGCCCACTGTTGATTCCGTTCTGACGGAGTCACCTAGTGCAG | 9180 fluorescence intensity (a.u.)
7 | CTACACCTTTTGCTTTGCTTTACCAGTCCCGAAACAACTACGGAGTCACCTAGTGCAG | 9660 fluorescence intensity (a.u.)
8 | TACACCTGCCACTGCTGCTGACCCTGCCAACCCCAACAAGCGGAGTCACCTAGTGCAG | 8600 fluorescence intensity (a.u.)
9 | AGTATTTAAGTAGTACTGTTATTTTCTCGTGTAATTCTGACGGAGTCACCTAGTGCAG | 8740 fluorescence intensity (a.u.)
10 | TTGGGTTGGTGCTTGACCAATATATATGGGGTGTGTGTGTCGGAGTCACCTAGTGCAG | 8250 fluorescence intensity (a.u.)
11 | GGTGTGGTGGTGGGGATTCCGCGCCGGCGAAAATCTCCGCCGGAGTCACCTAGTGCAG | 8180 fluorescence intensity (a.u.)
12 | CTCCGCCACCGCAAACATTCATTTTCCCACAACTGTTGGCCGGAGTCACCTAGTGCAG | 9760 fluorescence intensity (a.u.)
13 | AGGCACGCACATTGCACGTACGGCTGCACACCACGCTCACCGGAGTCACCTAGTGCAG | 8230 fluorescence intensity (a.u.)
14 | GACCTACATTGCCGACTGCCGCAACGCGACCACCGCCACTCGGAGTCACCTAGTGCAG | 8530 fluorescence intensity (a.u.)
15 | TACTCCTAGCTAGCAACCGCGCGCATTTTCTGACCTGTCCCGGAGTCACCTAGTGCAG | 9560 fluorescence intensity (a.u.)
16 | ACCGAAAGTTCAATTTGGTCCTTTACATTTTATTTTGTCCCGGAGTCACCTAGTGCAG | 8240 fluorescence intensity (a.u.)
17 | TAACAAAAGTGTGTGCTTGCTATGTAGGTCTATTATTCAGCGGAGTCACCTAGTGCAG | 8130 fluorescence intensity (a.u.)
18 | GCGGCTGGTGCGATCGGAGAGGTGGGTGTGTGCTTGTTTCCGGAGTCACCTAGTGCAG | 8220 fluorescence intensity (a.u.)
19 | GATAGGGTTAGCAGGGTGGGAAAATATATTTATTATAGTTCGGAGTCACCTAGTGCAG | 18700 fluorescence intensity (a.u.)
20 | CACATCACCGAATTCCACCTTCTCATGCGGCTTCTACCCACGGAGTCACCTAGTGCAG | 11300 fluorescence intensity (a.u.)
21 | ATAATGATATGTGTGTGCTAGCTAGCTATTGTTGATTTGTCGGAGTCACCTAGTGCAG | 8740 fluorescence intensity (a.u.)

A second format for part of the listing above.
Row,Sequence,binding signal
16,ACCGAAAGTTCAATTTGGTCCTTTACATTTTATTTTGTCCCGGAGTCACCTAGTGCAG,8240 fluorescence intensity (a.u.)
18,GCGGCTGGTGCGATCGGAGAGGTGGGTGTGTGCTTGTTTCCGGAGTCACCTAGTGCAG,8220 fluorescence intensity (a.u.)

Remaining list, next part:

Row | Sequence | binding signal
22 | CCCTGCCGATCTCTCTGAATTCGGTCGCCTCCTCCGCACCCGGAGTCACCTAGTGCAG | 9210 fluorescence intensity (a.u.)
23 | GTTGCTTACTAGTATACCTTACTCTCTTTCTGAACTTTTCCGGAGTCACCTAGTGCAG | 9060 fluorescence intensity (a.u.)
24 | CACCCAAAAGCGCACGTTCCTAAATCACGCGCCAACTGCTCGGAGTCACCTAGTGCAG | 8370 fluorescence intensity (a.u.)
25 | TACAACACCGCCTCCGTAACCGTTCTCTCTAACTATTTCACGGAGTCACCTAGTGCAG | 12100 fluorescence intensity (a.u.)
26 | TAGACTTCACCCGTTGCAACGCACGTCCATTTTTTTCTAGCGGAGTCACCTAGTGCAG | 8730 fluorescence intensity (a.u.)
27 | GCTTTGTGTTCCCGATGTGCTTATGATCACGTATTGTCGACGGAGTCACCTAGTGCAG | 9920 fluorescence intensity (a.u.)
28 | TGTGCTGGGTGGATTTGGGATTCGATGTGGCTGGAGTTGACGGAGTCACCTAGTGCAG | 12400 fluorescence intensity (a.u.)
29 | GTGCCTTTATTATGTCTTCTCATTTACCATGAACACTTTGCGGAGTCACCTAGTGCAG | 10200 fluorescence intensity (a.u.)
30 | GCCGCCTGCTATTGCTCCAATCCCTGATGCAGTTCCCACGCGGAGTCACCTAGTGCAG | 8760 fluorescence intensity (a.u.)
31 | GCGGCGGCCTCCTTCTCCACCACCTTCGTGTTCGCCATCGCGGAGTCACCTAGTGCAG | 8610 fluorescence intensity (a.u.)
32 | ACCAGCTAATCATGCCCACCCTAGCCTAGACTCCGTTGCTCGGAGTCACCTAGTGCAG | 10600 fluorescence intensity (a.u.)
33 | CGTGCGTAAGGGCTGGTTTAGATGGCAAAATTTTTTATTTCGGAGTCACCTAGTGCAG | 10500 fluorescence intensity (a.u.)
34 | TTCCTCTCGGGGTTGGCCTCCCGCCGCCAGGTCTCCTCCTCGGAGTCACCTAGTGCAG | 8210 fluorescence intensity (a.u.)
35 | CGGCGGCGTCCGAGTGTGTGTGTGTATGTAATGGACGCCGCGGAGTCACCTAGTGCAG | 8640 fluorescence intensity (a.u.)
36 | GCATCCGTGCCATTTCATCCCTATTTAATCGTCACATCACCGGAGTCACCTAGTGCAG | 10600 fluorescence intensity (a.u.)
37 | CCCCACCACCGATCTCCGCCGTCCGTCGCCGCCCTCGCCGCGGAGTCACCTAGTGCAG | 9020 fluorescence intensity (a.u.)
38 | CCCCATTACATCCCACCTTATTCTTGCAACCAAACACTACCGGAGTCACCTAGTGCAG | 8260 fluorescence intensity (a.u.)
39 | CGCTGGACGTACGCCACATTGCGCCCATCTCTCTCGCTCTCGGAGTCACCTAGTGCAG | 8290 fluorescence intensity (a.u.)
40 | CGCTCACCTCATTCTCTCGCCGCCACCACTCGCCTCCGTCCGGAGTCACCTAGTGCAG | 10800 fluorescence intensity (a.u.)
41 | TTTTGGTCCATGTTTGCTGCACTGATTTGGTGGACAACTCCGGAGTCACCTAGTGCAG | 8960 fluorescence intensity (a.u.)
42 | ATGGTGTACCCTGTTCTTTCTACTTGGTTACGTCAATTTCCGGAGTCACCTAGTGCAG | 8650 fluorescence intensity (a.u.)
